Assay results from publication PMC7819943, “Rice protein-binding microarrays: a tool to detect cis-acting elements near promoter regions in rice”.
The list shows a part of the results.

The chains behind the UniProt entries cited, without tags or fusion partners.
UniProt Q0JBA9, entry or part of it: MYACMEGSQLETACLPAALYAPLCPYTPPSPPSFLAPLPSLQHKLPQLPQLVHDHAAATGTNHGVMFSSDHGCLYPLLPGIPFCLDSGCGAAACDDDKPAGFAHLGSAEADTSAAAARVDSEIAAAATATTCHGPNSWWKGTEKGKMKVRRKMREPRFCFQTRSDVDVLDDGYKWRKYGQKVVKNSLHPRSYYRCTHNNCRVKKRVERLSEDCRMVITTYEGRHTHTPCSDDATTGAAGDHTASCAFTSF

Target: OsWRKY34 (Oryza sativa, UniProt Q0JBA9 1-250)
Experiment: protein-binding microarray (RPBM); PBS, 2% BSA, 51.3 ng/ul salmon testes DNA, 50 uM zinc acetate, 200 nM TF, 25 C, 1 h; high values mean tight binding
Conditions: protein: recombinant; tags: N-terminal polyhistidine and DsRed monomer fusion (pET32a); label: CyDye5-dUTP incorporated in the synthesized complementary strand; 3' TTTTT single-stranded linker to array surface; dsDNA, one strand shown
Method in brief: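 For the binding signal, per-feature fluorescence intensity was read in arbitrary units on an Axon 4000B scanner. Before scanning, a 2% BSA-blocked custom Agilent array made double-stranded with Cy5-dUTP was washed after 1 h at 25 °C with 200 nM protein and 50 µM zinc acetate. The proteins were Ni–NTA-purified transcription factors with N-terminal polyhistidine and DsRed fusions, expressed in E. coli BL21-CodonPlus.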

Sequence | binding signal
GCATAGTAATTTGATTTTTGTTTGTTATTTTGTTATAATTCGGAGTCACCTAGTGCAG | 10700 fluorescence intensity (a.u.)
TGCATCGCGTGCTTTTTCGGCCATGCACCTCTCGTCGTCTCGGAGTCACCTAGTGCAG | 8480 fluorescence intensity (a.u.)
CCTCCGCTCCCTCACCACCCACGCCGCCGCCGCCGCCGCCCGGAGTCACCTAGTGCAG | 11100 fluorescence intensity (a.u.)
ATTCACTTGGTTCCCAGCTCAATACTCACATCTGCTTCCACGGAGTCACCTAGTGCAG | 9040 fluorescence intensity (a.u.)
GCTGCCCCGCGGGCGTTGAGTTTCTTCTCTACTTCCTCCGCGGAGTCACCTAGTGCAG | 8450 fluorescence intensity (a.u.)
ACCTCGCCTACCTCCACTCTCTCGCGCTCGCTCTCCAATGCGGAGTCACCTAGTGCAG | 9280 fluorescence intensity (a.u.)
TGCCCGGACACCTCTCGGTTTGACCGCCGCCCATTGTCTGCGGAGTCACCTAGTGCAG | 9630 fluorescence intensity (a.u.)
TACTCGTATGCTGTACTACGTACTCCAGTACACTTTTTTTCGGAGTCACCTAGTGCAG | 10700 fluorescence intensity (a.u.)
TTGCAAACTTGCTTGTACTTGCGGTTGACTCTCCACTAGGCGGAGTCACCTAGTGCAG | 8180 fluorescence intensity (a.u.)
ATGTCCCACGCCGCAAGGGATCCCTACAGGGCCCCACCCTCGGAGTCACCTAGTGCAG | 8230 fluorescence intensity (a.u.)
GATGCTTGCGCTTGCGCTACCGTCTCCGTCTCAATCCCCACGGAGTCACCTAGTGCAG | 8180 fluorescence intensity (a.u.)
AGCCACTATGACCCTAGTTTCATCCATTTTCTGGTATTCACGGAGTCACCTAGTGCAG | 10100 fluorescence intensity (a.u.)
TCTGTATGGCCCTTTTTTTTTGTGACAATGCTACATGAATCGGAGTCACCTAGTGCAG | 10100 fluorescence intensity (a.u.)
CTGGCCTGCCGCTGCTGCTTGTTGCTTCTGCTACTGTGTTCGGAGTCACCTAGTGCAG | 9210 fluorescence intensity (a.u.)
ACTTGTTTATTCTTCTATTGGTTGCAGGGATTATGGTTGACGGAGTCACCTAGTGCAG | 9830 fluorescence intensity (a.u.)
CTGCGTCTCCTCGGTCTCCTCGCGAGCTCGCCGCCGGCCGCGGAGTCACCTAGTGCAG | 10100 fluorescence intensity (a.u.)
ACTGGGTCAATGTTTTCTCCCCACAAGTTTGCTCTTTCCACGGAGTCACCTAGTGCAG | 9660 fluorescence intensity (a.u.)
CCTGCATTCCCACTTTGTACGCCATGGTTTCTCGATTTCTCGGAGTCACCTAGTGCAG | 11000 fluorescence intensity (a.u.)
CCGCCGCCTCTGCATTCTCTTCTACCTCCTCACCGTCGTCCGGAGTCACCTAGTGCAG | 11000 fluorescence intensity (a.u.)
CATCTTCAACAGCACCATCTCCATCTGATAGCCAGATTGCCGGAGTCACCTAGTGCAG | 8110 fluorescence intensity (a.u.)
CGCCGTAATATACCACCATTCTCTTTTTCCGTCCGGGTCACGGAGTCACCTAGTGCAG | 9650 fluorescence intensity (a.u.)

Sequence | binding signal
CTGGTTGTGTGGGCGGAAGTTGGCTATGCTGGCGCATGGGCGGAGTCACCTAGTGCAG | 9920 fluorescence intensity (a.u.)
CAAATTCTAGACTTTTTGGTGGGTTGCGTGCGAGGGGTGGCGGAGTCACCTAGTGCAG | 10500 fluorescence intensity (a.u.)
GTCTCAAAAACTCATTCTCCACACGTAATGGATACTTTTGCGGAGTCACCTAGTGCAG | 8800 fluorescence intensity (a.u.)
GAGGACCCTACAGGTTAGGATCTCGGGAGTGGGATAGGGGCGGAGTCACCTAGTGCAG | 8170 fluorescence intensity (a.u.)
GGGCTCCTTATACTGCAATACTAGCTTAATTCTGTTTTCACGGAGTCACCTAGTGCAG | 9350 fluorescence intensity (a.u.)
GCGCTAATTTAACTGAACTTATAGTGGCCTTCATTATCATCGGAGTCACCTAGTGCAG | 8610 fluorescence intensity (a.u.)
TTTCCCGTCTCGCGTCGCGAACTAACTTAAATATAACCATCGGAGTCACCTAGTGCAG | 8260 fluorescence intensity (a.u.)
GGGTGATCAATGGTGCGGCAGCCTATCCGTCCTCTTGCTCCGGAGTCACCTAGTGCAG | 10500 fluorescence intensity (a.u.)
GAATTTCATTAACAAATGTCAAATATCGTGTGTTCATGTGCGGAGTCACCTAGTGCAG | 8540 fluorescence intensity (a.u.)
GATCGATTGCCATGCCATCCCACCCACCGTTCGTTGGTTTCGGAGTCACCTAGTGCAG | 8110 fluorescence intensity (a.u.)
TACTTTATCCGCGGCGGGTAGCTGGGGAGGGAGGGGAGGCCGGAGTCACCTAGTGCAG | 22500 fluorescence intensity (a.u.)
TTTAAGTACTTCCTTGTTTCGTCGTATGCCTAATATAAATCGGAGTCACCTAGTGCAG | 9700 fluorescence intensity (a.u.)
AATTCTCGTAACATTCTTATTTTATACGTTCGGAAATCATCGGAGTCACCTAGTGCAG | 9520 fluorescence intensity (a.u.)
ATAGTTAAGGGACCCCGTATATCTGGTTTTACGGTTGGGGCGGAGTCACCTAGTGCAG | 9730 fluorescence intensity (a.u.)
TCTTTCCTTTTGATTTGGTTTCTTTCCGTCCGATTTGTGACGGAGTCACCTAGTGCAG | 8950 fluorescence intensity (a.u.)
TATAGCATCTCATTTAACCCGATGTTACCTGTTTTGAGACCGGAGTCACCTAGTGCAG | 9820 fluorescence intensity (a.u.)
TCGAGAGGTGGGGAGGGGAGGGGAGCAGAGGGCGGCATCGCGGAGTCACCTAGTGCAG | 18600 fluorescence intensity (a.u.)
CTCTATATAAGCCCCACAATGCCCACCACCAGCTTGTCACCGGAGTCACCTAGTGCAG | 8230 fluorescence intensity (a.u.)
ATCCCACATGATATCTGACCGTCACAGACATCGTCTTAACCGGAGTCACCTAGTGCAG | 8190 fluorescence intensity (a.u.)
TTGTTTTAGGTATATGCTCTTTAGTTTGTACTGTGTTCTGCGGAGTCACCTAGTGCAG | 8210 fluorescence intensity (a.u.)
AAATTCGAGACGGTTTGGGTGTTTGACTATTTGGGCTGGTCGGAGTCACCTAGTGCAG | 11800 fluorescence intensity (a.u.)

Sequence | binding signal
GCTATACTATATATATTGCAAAATTTGTCCCATGTACATTCGGAGTCACCTAGTGCAG | 9140 fluorescence intensity (a.u.)
AGCTGCTGTCGGAGGGGCTGGGCCTCCCCGCGGGGTACCTCGGAGTCACCTAGTGCAG | 10100 fluorescence intensity (a.u.)
CAGCGGCTGCATTGCCTGATCTTGACTGAGATGCTGTTGACGGAGTCACCTAGTGCAG | 8420 fluorescence intensity (a.u.)
GACGGGAGAATGTAGACCGCTCCTCAACTCTGTGCTCGTTCGGAGTCACCTAGTGCAG | 8320 fluorescence intensity (a.u.)
CTGCATTGCCCCGGACTTTCTGCGACCCCTTTTTCCCGACCGGAGTCACCTAGTGCAG | 8900 fluorescence intensity (a.u.)
GTGTGTGGGTGGTGATGTACTTTTTTTCATTTTTCTTGGTCGGAGTCACCTAGTGCAG | 11100 fluorescence intensity (a.u.)
CTACACACAAACTTCCAACTTTTCTGTCACATCGTTCCAACGGAGTCACCTAGTGCAG | 11900 fluorescence intensity (a.u.)
TCTAGATATTGTCTTTCTTTTCATACTTATAGCTGCATCACGGAGTCACCTAGTGCAG | 8090 fluorescence intensity (a.u.)
GTAGCTGTCATATTCGACCTTCATTCCCATCTGCCTCGCACGGAGTCACCTAGTGCAG | 11500 fluorescence intensity (a.u.)
ATATTTTATCATCATCAGCCGATTGCCTTTATATCATCATCGGAGTCACCTAGTGCAG | 8720 fluorescence intensity (a.u.)
CTTTTGGATGCCAGCTCACAGCTCATCAATACATCACCATCGGAGTCACCTAGTGCAG | 8230 fluorescence intensity (a.u.)
CCTCGAGCCCCGTGCGCCATCCGTCGCGTCGACCATTAAGCGGAGTCACCTAGTGCAG | 9310 fluorescence intensity (a.u.)
AGGATTCTTACATATCATTCACTTCTTCACCAAGTCTTCTCGGAGTCACCTAGTGCAG | 9860 fluorescence intensity (a.u.)
TCCGATTTAAGCTCTCTTGCCCATTTTTTTTTCAGAGTTTCGGAGTCACCTAGTGCAG | 11900 fluorescence intensity (a.u.)
CGCGTGATGACTCCCCATCGCGATCCCGACCGTCCGTTTCCGGAGTCACCTAGTGCAG | 9570 fluorescence intensity (a.u.)
GTACTGTTTATATCTAAATTTGTCTTTTTGTTTCTCGATGCGGAGTCACCTAGTGCAG | 8610 fluorescence intensity (a.u.)
AAGCTTGGTCAACCCTCCAGTCCGCCGTAGACCGTAGCGCCGGAGTCACCTAGTGCAG | 8820 fluorescence intensity (a.u.)
CGGCTGTGAGGTTCTTGATTTGATCTGTGGTTGTTGTTGACGGAGTCACCTAGTGCAG | 8260 fluorescence intensity (a.u.)
CTTTATAGAGGTGTTCAAACGAATTTTAGGGTGGGATCTACGGAGTCACCTAGTGCAG | 8900 fluorescence intensity (a.u.)
CCGGCCTATACACTTTTGTGATAGTGAACATGCAGCTTTCCGGAGTCACCTAGTGCAG | 9780 fluorescence intensity (a.u.)
GTGGTGACTTCATCAATATCAAGATATACCGTCCAGTCTTCGGAGTCACCTAGTGCAG | 8580 fluorescence intensity (a.u.)

Sequence | binding signal
CCAGGTCGCACGCTGATCTCCGCACCCGCCACCCGCAATGCGGAGTCACCTAGTGCAG | 8370 fluorescence intensity (a.u.)
ACTTGTTCTTTTGCTAGTAGAATCACTAATTCAGTATTGTCGGAGTCACCTAGTGCAG | 8320 fluorescence intensity (a.u.)
ATTTTAGGGGAGGGTTTTACTTAGCAACTTTCATCTTATTCGGAGTCACCTAGTGCAG | 15800 fluorescence intensity (a.u.)
CCTCCCATTGTGTCAAATTGCCCACACACGTACGCGCCATCGGAGTCACCTAGTGCAG | 8180 fluorescence intensity (a.u.)
ATAAACATAAACTTCCAACATTTCCGTCACATCATTCTAACGGAGTCACCTAGTGCAG | 8970 fluorescence intensity (a.u.)
GACGACCCACCCCGTCGTGTCATCGCCGCGCGTGCACCAGCGGAGTCACCTAGTGCAG | 8200 fluorescence intensity (a.u.)
TTGACATAAATTTTCAACCAACCCGTTGTTTTTGTTTTACCGGAGTCACCTAGTGCAG | 9250 fluorescence intensity (a.u.)
CGCCGTCGCTCCCTGCCTCTCCACCGCGCCGTCGTCCTCGCGGAGTCACCTAGTGCAG | 10300 fluorescence intensity (a.u.)
CCGACAACACCGGCTTCCCTATATATTTTAGCAACTTTATCGGAGTCACCTAGTGCAG | 8950 fluorescence intensity (a.u.)
TTTTTTGCCTTACCAACCCCAGTATTCAATTGTTCAAGTCCGGAGTCACCTAGTGCAG | 9620 fluorescence intensity (a.u.)
ATAGGGTGATATATGCTCTGCTCTACCTGCATCTGACCACCGGAGTCACCTAGTGCAG | 8630 fluorescence intensity (a.u.)
GCAGACAACTCCGTCGCTGTTACTTCCTCTATGCCAAAACCGGAGTCACCTAGTGCAG | 9350 fluorescence intensity (a.u.)
TTTTGCACTATTCAACCATCTTTCTCCACTTTTGTCTTACCGGAGTCACCTAGTGCAG | 10600 fluorescence intensity (a.u.)
AAGTTCATCTCTTATTTTTCTTCCTTTGCATATTTGACCGCGGAGTCACCTAGTGCAG | 9770 fluorescence intensity (a.u.)
TCCCTCGCGAAGGTCTTGTTGTCCCCACTGATTCGCCGCTCGGAGTCACCTAGTGCAG | 9360 fluorescence intensity (a.u.)
ATCTGGGTTGGGGCTATTGGTTCACTCTCAGGGATTTGGACGGAGTCACCTAGTGCAG | 15200 fluorescence intensity (a.u.)
GTAGAAGCGCCTAACTTGTCGTTTGCTGTGGCTTGGGTTTCGGAGTCACCTAGTGCAG | 8690 fluorescence intensity (a.u.)
CCGGCATTCTCCATTGGAATCATTCTGACCATACCTGAACCGGAGTCACCTAGTGCAG | 9180 fluorescence intensity (a.u.)
TATTTTTTGGGGTAAAATACTTCTTATACTATATTATTTTCGGAGTCACCTAGTGCAG | 9100 fluorescence intensity (a.u.)
AGTCACATTCTTTTCTTTTCTTAATTATACATCACGAATTCGGAGTCACCTAGTGCAG | 8760 fluorescence intensity (a.u.)
ATCGTTCTTCCCGTGCCGCCGCCGCCGCCGCCGCTTCATCCGGAGTCACCTAGTGCAG | 12600 fluorescence intensity (a.u.)

Taken from above.
Value of CTGGTTGTGTGGGCGGAAGTTGGCTATGCTGGCGCATGGGCGGAGTCACCTAGTGCAG under binding signal: 9920 fluorescence intensity (a.u.)
Value of GCGCTAATTTAACTGAACTTATAGTGGCCTTCATTATCATCGGAGTCACCTAGTGCAG under binding signal: 8610 fluorescence intensity (a.u.)
Value of GCTATACTATATATATTGCAAAATTTGTCCCATGTACATTCGGAGTCACCTAGTGCAG under binding signal: 9140 fluorescence intensity (a.u.)
Value of TCTGTATGGCCCTTTTTTTTTGTGACAATGCTACATGAATCGGAGTCACCTAGTGCAG under binding signal: 10100 fluorescence intensity (a.u.)
